# The other results are listed elsewhere or left out. Many values rest on one well or one pass, so single values are uncertain.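 Imaging used 1,536-well plates; nuclei positive for cleaved PARP by antibody were divided by total DNA-stained nuclei to yield the apoptosis fraction. Doses for screening kept most cells viable, and cell lines differ markedly in resting and induced cleaved-PARP levels.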
# System: MEL-HO
# Assay: cleaved PARP positive nuclei fraction relative to DMSO control; melanoma cells; higher = more apoptosis
# Details: library dose: low library concentration; 72 h
row,SMILES,cleaved PARP positive nuclei fraction
1,"COc1cc([C@@H]2c3cc4c(cc3[C@@H](O[C@@H]3O[C@@H]5CO[C@@H](C)O[C@H]5[C@H](O)[C@H]3O)[C@H]3COC(=O)[C@H]23)OCO4)cc(OC)c1O [etoposide] + OCCn1cc(-c2cnc3nnn(Cc4ccc5ncccc5c4)c3n2)cn1 [PF04217903] (first compound 0.02 µM, partner dose 1 µM)",125%
2,"CCCCCCCCCCCCCCCCCCOP(=O)([O-])OC1CC[N+](C)(C)CC1 [Perifosine] + C[C@@H]1CCN(C(=O)CC#N)C[C@@H]1N(C)c1ncnc2[nH]ccc12 [CP690550] (first compound 0.4 µM, partner dose 1 µM)",75.9%
3,"O=C(/C=C/c1cccnc1)NCCCCC1CCN(C(=O)c2ccccc2)CC1 + Cc1ccc(NC(=O)c2cccc(N(C)C)c2)cc1NC(=O)c1ccc(O)cc1 [ZM336372] (first compound 0.01 µM, partner dose 2 µM)",183%
4,"Cc1ccc(Nc2nccc(N(C)c3ccc4c(C)n(C)nc4c3)n2)cc1S(N)(=O)=O [Pazopanib] + COc1cc(Nc2ncc(F)c(Nc3ccc4c(n3)NC(=O)C(C)(C)O4)n2)cc(OC)c1OC [Tamatinib] (first compound 0.4 µM, partner dose 0.4 µM)",191%
5,"N#CC[C@H](C1CCCC1)n1cc(-c2ncnc3[nH]ccc23)cn1 [ruxolitinib] + COc1cc(Nc2ncc(F)c(Nc3ccc4c(n3)NC(=O)C(C)(C)O4)n2)cc(OC)c1OC [Tamatinib] (first compound 1 µM, partner dose 0.4 µM)",37%
